These are yes or no findings as the source states them, for the method shown. In cells and extracts the contact can be indirect. Binding can be weak; no strength is given.
Biological target: BAX fusion protein (Proteintech) (UniProt Q07812)
Assay: pull-down; GST or BAX fusion protein on G-Sepharose beads for 2 h in binding buffer (1% Triton X-100, 50 mM Tris-HCl pH 7.4, 250 mM NaCl), then cell lysates for 2 h; bound proteins by immunoblot; only the target purified

Protein sequences, listed by entry. Tags and fused reporters are not part of them. Lines headed by an entry give the natural chain unless they say otherwise; changes in a name come on top.
UniProt Q07812: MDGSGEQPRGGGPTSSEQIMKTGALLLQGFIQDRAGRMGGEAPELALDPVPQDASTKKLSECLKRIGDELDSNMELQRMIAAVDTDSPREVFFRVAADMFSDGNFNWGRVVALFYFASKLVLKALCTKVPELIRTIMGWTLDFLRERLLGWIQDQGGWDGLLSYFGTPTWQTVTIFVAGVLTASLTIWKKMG

B1: DRAM1 (DNA damage-regulated autophagy modulator 1) (protein, UniProt Q8N682 1-238)
chain: MLCFLRGMAFVPFLLVTWSSAAFIISYVVAVLSGHVNPFLPYISDTGTTPPESGIFGFMINFSAFLGAATMYTRYKIVQKQNQTCYFSTPVFNLVSLVLGLVGCFGMGIVANFQELAVPVVHDGGALLAFVCGVVYTLLQSIISYKSCPQWNSLSTCHIRMVISAVSCAAVIPMIVCASLISITKLEWNPREKDYVYHVVSAICEWTVAFGFIFYFLTFIQDFQSVTLRISTEINGDI
Question: How did the binding turn out when B1 was run?
Answer: The binding was “binds”.
